Some results were stated once for a whole list of compounds, not compound by compound.
Experiments:
[1] = test system: various human leukemia and solid tumor; details: in vitro and in vivo; cited from earlier work
[2] = test system: human mammary carcinoma MX-1 xenograft; assay: Antitumor therapeutic effect against MX-1 xenograft in nude mice; assay type: in vivo; details: for log cell kill (LCK), Eq. 4: estimated from remission time and tumor doubling time; for Complete remission maintained without any relapse: one cycle 5-dose-treatments, 3 out of 3 mice
Method: Athymic nude mice bearing the nu/nu gene were obtained from NCI, Frederick, Md. and used for all human tumor xenografts. Male nude mice 6 weeks or older weighing 20-24 g or more were used. Compounds were administered via the tail vein for i.v. injection or infusion as described previously.^64 A typical formulation for chemotherapeutic studies for each drug was dissolved in DSMO to make a 25 mg/ml fresh solution, 0.4 ml of this solution was mixed with 0.3 ml of Tween 80, plus 1.3 ml to make 2 ml of 5 mg/ml solution. Bolus injection volume was 0.1-0.2 ml per mouse. Tumor volume was assessed by measuring length×width×height (or width) by using a caliper. For tumor-bearing nude mice during the course of the experiment, the body weight refers to total weight minus the weight of the tumor. All animal studies were conducted in accordance with the guidelines for the National Institute of Health Guide for the Care and Use of Animals and the protocol approved by the Institutional Animal Care and Use Committee.
The therapeutic effects of a drug against human tumor xenografts in nude mice, under the optimal therapeutic conditions but without any lethality due to drug toxicity, the following degrees of therapeutic effects are defined and calculated by the following formula: […]
where • T0 is the initial tumor size (in mm^3) at beginning of drug treatment; • Tc is tumor size of untreated control group on a given date; and • Tx is tumor size of the drug treated group on a given date.
[formula] • Tumor disappearance (complete remission or CR) is defined by the effect where • [Tx=0] for a period of time (in days) for a proportion of animals (NCR/N), where • N is the total number of animals in the group, and NCR is the number of mice in the group that achieved CR. • Tumor relapse is quantitatively calculated by • [The Day tumor relapsed (Drelp)—The Day CR achieved (DCR)] (Eq. 3) for a proportion of animals (Nrelp/N) where N is the total number of animals in the group, and Nrelp is the number of the mice in the group that relapsed. • The log cell kill (LCK) of the tumor tissue after a given chemotherapy that reached CR is estimated by: LCK=log [2^(Tumor remission in days/Tumor doubling time in days)] (Eq. 4)
Athymic nude mice bearing the nu/nu gene were used for human breast tumor MX-1 xenograft (FIGS. 3 and 4) and human brain glioma U87 GM xenograft (FIG. 5). Nude mice were obtained from National Cancer Institute, Frederick, Md. Male mice 6 weeks old or older weighing 22 g or more were used for experiments with subcutaneous tumor inoculation as described previously.^67 Drug was administrated via the tail vein by iv injection. Tumor volumes were assessed by measuring length×width×height (or width) by using caliper. Vehicle used was 20 μL DMSO in 180 μL saline. All animal studies were conducted in accordance with the guidelines of the U.S. National Institutes of Health Guide for the Care and Use of Animals and the protocol approved by the Institutional Animal Care and Use Committee.

[3] = test system: biosynthesis of DNA, RNA and protein in MX-1 cells; assay: Inhibition of biosynthesis of DNA, RNA and protein (tritiated tracer incorporation); assay type: cell-based, human; details: 10 μM

| SMILES | Cytotoxicity relative to AHMA [1] [time] | log cell kill (LCK), Eq. 4 [2] | Complete remission maintained without any relapse [2] | Degree of inhibiting biosynthesis of DNA and RNA (maximal) [3] | Persistence of inhibition of DNA and RNA biosynthesis [3] [h] | Time to half-maximal inhibition of DNA and RNA biosynthesis [3] [min] |
| --- | --- | --- | --- | --- | --- | --- |
| COc1cc(N)cc(Nc2c3ccccc3nc3c(OCCN(CCCl)CCCl)cccc23)c1.Cl [BO-0940, N1-(4-{2-[bis(2-chloroethyl)-amino]-ethoxy}acridin-9-yl)-5-methoxybenzene-1,3-diamine hydrochloride] | > 100 |  |  |  |  |  |
| Cc1cc(NC(=O)Nc2ccc(N(CCCl)CCCl)cc2)c2ccccc2n1 [BO-1038, 1-{4-[bis(2-chloroethyl)amino]phenyl}-3-(2-methylquinolin-4-yl)urea] |  | > 4.1 | over 70 days | 50-80% | 6 to 24 | 15 to 30 |
| Cc1cccc2c(Nc3cc(CO)cc(NC(=O)Nc4ccc(N(CCCl)CCCl)cc4)c3)c3ccccc3nc12 [BO-1050, 1-{4-[bis(2-chloroethyl)amino]phenyl}-3-[3-hydroxymethyl-5-(4-methylacridin-9-ylamino)phenyl]urea] |  | > 4.1 | over 70 days |  |  |  |
| Cc1ccc(Nc2c3ccccc3nc3c(C)cccc23)cc1NC(=O)Nc1ccc(N(CCCl)CCCl)cc1 [BO-1051] |  | > 4.1 | over 70 days | 50-80% | 6 to 24 | 15 to 30 |
